From the supplement of paper PMC6078165
± gives the standard deviation of the averaged measurements. The reference is the same well before dosing, and untreated signal decays as well.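 Labels refer to human fibroblasts, largely primary: uterine (C12385, HUF), lung (H6013), bone (Hs27A), adrenal (HADF), skin (WS1), plus mammary HMF and breast cancer-associated Hs343T. Cancer lines are basal-like or mesenchymal-like triple-negative breast cancer. The paper counts as hits responses shifting over 3x the replicate standard deviation. The tissue of the other fibroblasts is not given here.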

Test system: BT20
Test: relative JC-1 red fluorescence (viability) vs pre-drug, coculture with fibroblast (fraction); higher = more viable cancer cells
Experimental: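 JC-1 labelled TNBC cells cocultured 1:1 (1,500 cells each) with CellTrace Violet stained primary or stromal fibroblasts in 384-well plates in FluoroBrite medium, treated with one of 42 anticancer drugs at 0.1, 1, 10 or 100 uM. JC-1 red fluorescence (mitochondrial integrity in cancer cells only) was read by plate reader every 8 h for 72 h. Values are normalised to each well's pre-drug value. The stock of one drug was tenfold lower, so its dose labels may be too high.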

CCC1=C[C@@H]2CN(C1)Cc1c([nH]c3ccccc13)[C@@](C(=O)OC)(c1cc3c(cc1OC)N(C)[C@H]1[C@@](O)(C(=O)OC)[C@H](OC(C)=O)[C@]4(CC)C=CCN5CC[C@]31[C@@H]54)C2 [Vinorelbine]
relative JC-1 red fluorescence
Settings	8 h	16 h	24 h	32 h	40 h	48 h	56 h	64 h	72 h
10 µM, coculture fibroblast: C12385	0.898 ± 0.018	0.849 ± 0.028	0.805 ± 0.04	0.772 ± 0.021	0.713 ± 0.035	0.67 ± 0.033	0.634 ± 0.035	0.581 ± 0.032	0.55 ± 0.025
10 µM, coculture fibroblast: H6013	0.972 ± 0.027	0.928 ± 0.012	0.867 ± 0.028	0.846 ± 0.012	0.873 ± 0.13	0.838 ± 0.16	0.821 ± 0.17	0.794 ± 0.18	0.776 ± 0.19
10 µM, coculture fibroblast: H6019	0.875 ± 0.0099	0.839 ± 0.031	0.793 ± 0.021	0.736 ± 0.017	0.699 ± 0.012	0.67 ± 0.0078	0.627 ± 0.0099	0.5879 ± 0.0026	0.5687 ± 0.00099
10 µM, coculture fibroblast: H6076	0.783 ± 0.053	0.856 ± 0.15	0.923 ± 0.09	0.848 ± 0.099	0.761 ± 0.055	0.691 ± 0.043	0.633 ± 0.018	0.59 ± 0.026	0.552 ± 0.021
10 µM, coculture fibroblast: H6231	0.749 ± 0.077	0.84 ± 0.21	0.877 ± 0.031	0.797 ± 0.036	0.743 ± 0.038	0.683 ± 0.04	0.626 ± 0.034	0.577 ± 0.02	0.527 ± 0.032
10 µM, coculture fibroblast: HADF	0.834 ± 0.17	0.945 ± 0.05	0.862 ± 0.04	0.851 ± 0.017	0.8 ± 0.015	0.76 ± 0.012	0.752 ± 0.013	0.725 ± 0.017	0.708 ± 0.015
10 µM, coculture fibroblast: HCFa	0.925 ± 0.027	0.905 ± 0.037	0.885 ± 0.049	0.816 ± 0.068	0.773 ± 0.061	0.733 ± 0.071	0.679 ± 0.084	0.65 ± 0.086	0.623 ± 0.097
10 µM, coculture fibroblast: HCPF	0.827 ± 0.14	0.903 ± 0.085	0.939 ± 0.032	0.863 ± 0.053	0.815 ± 0.055	0.745 ± 0.042	0.674 ± 0.038	0.656 ± 0.049	0.609 ± 0.045
10 µM, coculture fibroblast: HHSteC	0.896 ± 0.059	0.864 ± 0.081	0.759 ± 0.061	0.871 ± 0.071	0.918 ± 0.066	0.902 ± 0.064	0.831 ± 0.087	0.81 ± 0.09	0.791 ± 0.08
10 µM, coculture fibroblast: HMF	0.808 ± 0.13	0.985 ± 0.014	0.896 ± 0.015	0.846 ± 0.018	0.7612 ± 0.0069	0.697 ± 0.0091	0.641 ± 0.013	0.589 ± 0.011	0.54 ± 0.024
10 µM, coculture fibroblast: HPFa	0.939 ± 0.015	0.903 ± 0.039	0.874 ± 0.056	0.799 ± 0.063	0.761 ± 0.085	0.704 ± 0.084	0.643 ± 0.087	0.63 ± 0.1	0.594 ± 0.12
10 µM, coculture fibroblast: HUF	0.894 ± 0.023	0.8247 ± 0.0076	0.806 ± 0.016	0.73 ± 0.027	0.683 ± 0.019	0.641 ± 0.019	0.595 ± 0.051	0.563 ± 0.057	0.543 ± 0.065
10 µM, coculture fibroblast: Hs5	0.7048 ± 0.0058	0.842 ± 0.2	0.8952 ± 0.0018	0.846 ± 0.023	0.762 ± 0.038	0.701 ± 0.043	0.644 ± 0.052	0.605 ± 0.044	0.572 ± 0.045
10 µM, coculture fibroblast: Hs27A	0.817 ± 0.025	0.752 ± 0.036	0.911 ± 0.027	0.953 ± 0.012	0.9021 ± 0.0069	0.8671 ± 0.0045	0.822 ± 0.036	0.77 ± 0.034	0.739 ± 0.034
10 µM, coculture fibroblast: Hs343T	0.829 ± 0.035	0.93 ± 0.075	0.886 ± 0.04	0.82 ± 0.039	0.758 ± 0.029	0.714 ± 0.024	0.643 ± 0.01	0.604 ± 0.017	0.561 ± 0.013
10 µM, coculture fibroblast: WS1	0.8601 ± 0.0042	0.8029 ± 0.0026	0.776 ± 0.014	0.71 ± 0.036	0.654 ± 0.033	0.614 ± 0.036	0.566 ± 0.028	0.536 ± 0.034	0.515 ± 0.03
100 µM, coculture fibroblast: C12385	0.653 ± 0.031	0.498 ± 0.013	0.333 ± 0.018	0.23 ± 0.012	0.158 ± 0.0092	0.13 ± 0.01	0.0999 ± 0.0082	0.0784 ± 0.006	0.0569 ± 0.0071
100 µM, coculture fibroblast: H6013	0.706 ± 0.059	0.383 ± 0.057	0.336 ± 0.0076	0.232 ± 0.016	0.186 ± 0.017	0.15 ± 0.018	0.138 ± 0.015	0.109 ± 0.018	0.0819 ± 0.021
100 µM, coculture fibroblast: H6019	0.595 ± 0.031	0.247 ± 0.027	0.179 ± 0.021	0.117 ± 0.0098	0.0749 ± 0.0096	0.0582 ± 0.0087	0.0354 ± 0.007	0.0188 ± 0.0067	0.00562 ± 0.0069
100 µM, coculture fibroblast: H6076	0.835 ± 0.1	0.499 ± 0.088	0.386 ± 0.058	0.336 ± 0.057	0.292 ± 0.065	0.254 ± 0.056	0.223 ± 0.052	0.191 ± 0.05	0.15 ± 0.049
100 µM, coculture fibroblast: H6231	0.621 ± 0.02	0.388 ± 0.04	0.228 ± 0.02	0.177 ± 0.016	0.146 ± 0.014	0.108 ± 0.0069	0.0728 ± 0.013	0.055 ± 0.0078	0.0299 ± 0.0099
100 µM, coculture fibroblast: HADF	0.793 ± 0.079	0.555 ± 0.11	0.418 ± 0.06	0.277 ± 0.057	0.234 ± 0.05	0.187 ± 0.043	0.164 ± 0.044	0.143 ± 0.043	0.108 ± 0.039
100 µM, coculture fibroblast: HCFa	0.887 ± 0.096	0.66 ± 0.015	0.528 ± 0.079	0.386 ± 0.091	0.343 ± 0.1	0.299 ± 0.11	0.283 ± 0.13	0.26 ± 0.12	0.222 ± 0.12
100 µM, coculture fibroblast: HCPF	0.802 ± 0.045	0.521 ± 0.041	0.385 ± 0.079	0.314 ± 0.099	0.274 ± 0.092	0.234 ± 0.084	0.195 ± 0.089	0.166 ± 0.073	0.113 ± 0.057
100 µM, coculture fibroblast: HHSteC	0.644 ± 0.23	0.369 ± 0.17	0.386 ± 0.21	0.309 ± 0.22	0.294 ± 0.25	0.266 ± 0.25	0.265 ± 0.27	0.242 ± 0.28	0.224 ± 0.29
100 µM, coculture fibroblast: HMF	0.774 ± 0.087	0.372 ± 0.055	0.325 ± 0.033	0.279 ± 0.032	0.241 ± 0.037	0.207 ± 0.027	0.177 ± 0.029	0.143 ± 0.03	0.099 ± 0.027
100 µM, coculture fibroblast: HPFa	0.803 ± 0.084	0.683 ± 0.075	0.602 ± 0.068	0.412 ± 0.06	0.346 ± 0.046	0.287 ± 0.046	0.264 ± 0.045	0.234 ± 0.044	0.194 ± 0.041
100 µM, coculture fibroblast: HUF	0.704 ± 0.047	0.532 ± 0.023	0.345 ± 0.0035	0.221 ± 0.0041	0.174 ± 0.0047	0.141 ± 0.0021	0.1238 ± 0.0011	0.103 ± 0.0013	0.0869 ± 0.0033
100 µM, coculture fibroblast: Hs5	0.59 ± 0.11	0.427 ± 0.023	0.307 ± 0.054	0.257 ± 0.053	0.219 ± 0.041	0.181 ± 0.034	0.147 ± 0.032	0.116 ± 0.026	0.0823 ± 0.021
100 µM, coculture fibroblast: Hs27A	0.82 ± 0.12	0.704 ± 0.12	0.6196 ± 0.0029	0.499 ± 0.06	0.458 ± 0.071	0.44 ± 0.085	0.448 ± 0.11	0.417 ± 0.12	0.389 ± 0.14
100 µM, coculture fibroblast: Hs343T	0.743 ± 0.0077	0.334 ± 0.066	0.259 ± 0.042	0.225 ± 0.051	0.192 ± 0.048	0.154 ± 0.043	0.122 ± 0.038	0.0992 ± 0.033	0.0645 ± 0.026
100 µM, coculture fibroblast: WS1	0.542 ± 0.021	0.234 ± 0.03	0.21 ± 0.051	0.155 ± 0.052	0.108 ± 0.043	0.0861 ± 0.04	0.0625 ± 0.037	0.0449 ± 0.039	0.0262 ± 0.035
